Experimental data: PubChem BioAssay AID1259254 (NCATS, 2017)
Test: 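Genome-wide screen for genes that prevent DNA re-replication in cancer cells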 (primary screen). Cells: human HCT116 colorectal cancer cells. Knock-down reagent: single siRNA against human genes. Timing: 3 days. Detection: 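Nuclei stained with Hoechst and imaged; cell-cycle phase assigned by DNA content; G2 share scaled per plate, non-targeting siRNA 0%, GMNN siRNA 100%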. Direction: G2 robust z-score and G2 cells, % of GMNN control: higher = more G2 cells, more excess DNA replication; raw share of cells in G2: higher = larger share of cells with G2 DNA content. Call rule: 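An siRNA counts as active if its G2 robust z-score lies at least 5 MADs above the screen median; here such calls match roughly 38% of GMNN control or more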.
In all, the deposit lists about 59,000 reagents; shown is a random part of them. Over the whole deposit, about 1,550 (2.6%) are marked active. 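G2 share is only a proxy for re-replication; each gene was hit by three separate siRNAs, and active genes were retested.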 The raw values are shown without normalisation. The numbers tell different reagents against one gene apart. Not given: the amount of reagent.

Target gene | reagent | G2 robust z-score | G2 cells, % of GMNN control | raw share of cells in G2 (%) | call
INTS6 | 1 | 0.972 | 9.8 | 10.6 | inactive
INTS6 | 2 | 0.763 | 8.33 | 6.95 | inactive
INTS6 | 3 | 1.74 | 15.2 | 8.97 | inactive
LOC729609 | 1 | -0.633 | -1.49 | 2.63 | inactive
LOC729609 | 2 | 2.72 | 22.1 | 12.8 | inactive
LOC729609 | 3 | 1.79 | 15.6 | 8.48 | inactive
GRIA1 | 1 | 6.01 | 45.3 | 21.8 | active
GRIA1 | 2 | -0.476 | -0.382 | 4.65 | inactive
GRIA1 | 3 | -1.15 | -5.11 | 2.38 | inactive
NEMF | 1 | 0.126 | 3.85 | 6.84 | inactive
NEMF | 2 | 1.33 | 12.3 | 8.78 | inactive
NEMF | 3 | 0.915 | 9.41 | 6.67 | inactive
BNIPL | 1 | -0.449 | -0.192 | 3.76 | inactive
BNIPL | 2 | -0.274 | 1.04 | 3.23 | inactive
BNIPL | 3 | -0.569 | -1.03 | 2.71 | inactive
PSMC1 | 1 | 3.13 | 25 | 13.6 | inactive
PSMC1 | 2 | 0.329 | 5.28 | 6.7 | inactive
PSMC1 | 3 | 1.45 | 13.1 | 8.51 | inactive
ZNF839 | 1 | -0.891 | -3.3 | 3.25 | inactive
ZNF839 | 2 | -0.806 | -2.7 | 3.02 | inactive
ZNF839 | 3 | -1.28 | -6.04 | 1.21 | inactive
IGSF9B | 1 | 0.0546 | 3.35 | 4.11 | inactive
IGSF9B | 2 | -0.244 | 1.25 | 5.47 | inactive
IGSF9B | 3 | 0.0504 | 3.32 | 5.51 | inactive
IGSF9B | 4 | 0.97 | 9.79 | 6.84 | inactive
IGSF9B | 5 | 0.983 | 9.88 | 7.5 | inactive
IGSF9B | 6 | 0.405 | 5.82 | 5.38 | inactive
NKAIN2 | 1 | -0.183 | 1.68 | 4.2 | inactive
NKAIN2 | 2 | -0.224 | 1.39 | 3.43 | inactive
NKAIN2 | 3 | -0.0729 | 2.45 | 3.54 | inactive

Part of the list above, reformatted.
PSMC1 #3 → G2 robust z-score = 1.45; G2 cells, % of GMNN control = 13.1; raw share of cells in G2 (%) = 8.51; call = inactive
ZNF839 #1 → G2 robust z-score = -0.891; G2 cells, % of GMNN control = -3.3; raw share of cells in G2 (%) = 3.25; call = inactive
ZNF839 #2 → G2 robust z-score = -0.806; G2 cells, % of GMNN control = -2.7; raw share of cells in G2 (%) = 3.02; call = inactive
ZNF839 #3 → G2 robust z-score = -1.28; G2 cells, % of GMNN control = -6.04; raw share of cells in G2 (%) = 1.21; call = inactive
IGSF9B #1 → G2 robust z-score = 0.0546; G2 cells, % of GMNN control = 3.35; raw share of cells in G2 (%) = 4.11; call = inactive
IGSF9B #2 → G2 robust z-score = -0.244; G2 cells, % of GMNN control = 1.25; raw share of cells in G2 (%) = 5.47; call = inactive
IGSF9B #3 → G2 robust z-score = 0.0504; G2 cells, % of GMNN control = 3.32; raw share of cells in G2 (%) = 5.51; call = inactive
IGSF9B #4 → G2 robust z-score = 0.97; G2 cells, % of GMNN control = 9.79; raw share of cells in G2 (%) = 6.84; call = inactive
IGSF9B #5 → G2 robust z-score = 0.983; G2 cells, % of GMNN control = 9.88; raw share of cells in G2 (%) = 7.5; call = inactive
IGSF9B #6 → G2 robust z-score = 0.405; G2 cells, % of GMNN control = 5.82; raw share of cells in G2 (%) = 5.38; call = inactive

Continued.
Target gene | reagent | G2 robust z-score | G2 cells, % of GMNN control | raw share of cells in G2 (%) | call
NFIB | 1 | -1.35 | -6.56 | 2.83 | inactive
NFIB | 2 | 0.856 | 8.99 | 6.16 | inactive
NFIB | 3 | 4.04 | 31.4 | 17.9 | inactive
GARIN6 | 1 | 0.47 | 6.27 | 5.85 | inactive
GARIN6 | 2 | 1.83 | 15.9 | 8.28 | inactive
GARIN6 | 3 | -0.808 | -2.72 | 1.9 | inactive
RBMS3 | 1 | 1.49 | 13.5 | 8.39 | inactive
RBMS3 | 2 | -0.996 | -4.04 | 2.84 | inactive
RBMS3 | 3 | 1.03 | 10.2 | 10.8 | inactive
PPIAP35 | 1 | 2.14 | 18 | 8.81 | inactive
PPIAP35 | 2 | -0.119 | 2.13 | 3.35 | inactive
PPIAP35 | 3 | -0.0153 | 2.86 | 5.25 | inactive
BTN3A3 | 1 | -0.971 | -3.87 | 4.95 | inactive
BTN3A3 | 2 | -0.17 | 1.77 | 4.41 | inactive
BTN3A3 | 3 | -0.693 | -1.91 | 4.87 | inactive
RPL38 | 1 | 3.08 | 24.7 | 15.5 | inactive
RPL38 | 2 | 5.22 | 39.7 | 19.9 | active
RPL38 | 3 | 1.7 | 15 | 8.76 | inactive
SLC35F6 | 1 | 0.552 | 6.85 | 6.06 | inactive
SLC35F6 | 2 | 0.871 | 9.1 | 8.1 | inactive
SLC35F6 | 3 | 0.764 | 8.35 | 5.95 | inactive
FAM20B | 1 | 3.61 | 28.4 | 18.1 | inactive
FAM20B | 2 | 0.0704 | 3.46 | 5.39 | inactive
FAM20B | 3 | -0.204 | 1.53 | 3.96 | inactive
ARSI | 1 | -0.112 | 2.18 | 6.84 | inactive
ARSI | 2 | -0.299 | 0.863 | 5.3 | inactive
ARSI | 3 | -0.374 | 0.334 | 4.41 | inactive
MOB2 | 1 | -1.63 | -8.51 | 1.64 | inactive
MOB2 | 2 | 2.34 | 19.5 | 13.5 | inactive
MOB2 | 3 | 0.477 | 6.33 | 6.48 | inactive
NREPP1 | 1 | 1.61 | 14.3 | 9.18 | inactive
NREPP1 | 2 | 0.3 | 5.08 | 5.11 | inactive
NREPP1 | 3 | -0.995 | -4.03 | 1.76 | inactive
RIMBP3 | 1 | 0.598 | 7.18 | 7.13 | inactive
RIMBP3 | 2 | -0.474 | -0.367 | 2.89 | inactive
RIMBP3 | 3 | -0.0655 | 2.51 | 3.72 | inactive
RPS7P4 | 1 | -0.31 | 0.789 | 4.09 | inactive
RPS7P4 | 2 | 2.93 | 23.6 | 10.2 | inactive
RPS7P4 | 3 | 1.14 | 11 | 6.89 | inactive
